The values below come from doi:10.1101/2023.07.31.551310.

The chains behind the UniProt entries cited, without tags or fusion partners. Where a name states a change or a piece, a line headed by the entry shows the natural chain unless it says otherwise. Residues count along the entry.
UniProt F4IXW2: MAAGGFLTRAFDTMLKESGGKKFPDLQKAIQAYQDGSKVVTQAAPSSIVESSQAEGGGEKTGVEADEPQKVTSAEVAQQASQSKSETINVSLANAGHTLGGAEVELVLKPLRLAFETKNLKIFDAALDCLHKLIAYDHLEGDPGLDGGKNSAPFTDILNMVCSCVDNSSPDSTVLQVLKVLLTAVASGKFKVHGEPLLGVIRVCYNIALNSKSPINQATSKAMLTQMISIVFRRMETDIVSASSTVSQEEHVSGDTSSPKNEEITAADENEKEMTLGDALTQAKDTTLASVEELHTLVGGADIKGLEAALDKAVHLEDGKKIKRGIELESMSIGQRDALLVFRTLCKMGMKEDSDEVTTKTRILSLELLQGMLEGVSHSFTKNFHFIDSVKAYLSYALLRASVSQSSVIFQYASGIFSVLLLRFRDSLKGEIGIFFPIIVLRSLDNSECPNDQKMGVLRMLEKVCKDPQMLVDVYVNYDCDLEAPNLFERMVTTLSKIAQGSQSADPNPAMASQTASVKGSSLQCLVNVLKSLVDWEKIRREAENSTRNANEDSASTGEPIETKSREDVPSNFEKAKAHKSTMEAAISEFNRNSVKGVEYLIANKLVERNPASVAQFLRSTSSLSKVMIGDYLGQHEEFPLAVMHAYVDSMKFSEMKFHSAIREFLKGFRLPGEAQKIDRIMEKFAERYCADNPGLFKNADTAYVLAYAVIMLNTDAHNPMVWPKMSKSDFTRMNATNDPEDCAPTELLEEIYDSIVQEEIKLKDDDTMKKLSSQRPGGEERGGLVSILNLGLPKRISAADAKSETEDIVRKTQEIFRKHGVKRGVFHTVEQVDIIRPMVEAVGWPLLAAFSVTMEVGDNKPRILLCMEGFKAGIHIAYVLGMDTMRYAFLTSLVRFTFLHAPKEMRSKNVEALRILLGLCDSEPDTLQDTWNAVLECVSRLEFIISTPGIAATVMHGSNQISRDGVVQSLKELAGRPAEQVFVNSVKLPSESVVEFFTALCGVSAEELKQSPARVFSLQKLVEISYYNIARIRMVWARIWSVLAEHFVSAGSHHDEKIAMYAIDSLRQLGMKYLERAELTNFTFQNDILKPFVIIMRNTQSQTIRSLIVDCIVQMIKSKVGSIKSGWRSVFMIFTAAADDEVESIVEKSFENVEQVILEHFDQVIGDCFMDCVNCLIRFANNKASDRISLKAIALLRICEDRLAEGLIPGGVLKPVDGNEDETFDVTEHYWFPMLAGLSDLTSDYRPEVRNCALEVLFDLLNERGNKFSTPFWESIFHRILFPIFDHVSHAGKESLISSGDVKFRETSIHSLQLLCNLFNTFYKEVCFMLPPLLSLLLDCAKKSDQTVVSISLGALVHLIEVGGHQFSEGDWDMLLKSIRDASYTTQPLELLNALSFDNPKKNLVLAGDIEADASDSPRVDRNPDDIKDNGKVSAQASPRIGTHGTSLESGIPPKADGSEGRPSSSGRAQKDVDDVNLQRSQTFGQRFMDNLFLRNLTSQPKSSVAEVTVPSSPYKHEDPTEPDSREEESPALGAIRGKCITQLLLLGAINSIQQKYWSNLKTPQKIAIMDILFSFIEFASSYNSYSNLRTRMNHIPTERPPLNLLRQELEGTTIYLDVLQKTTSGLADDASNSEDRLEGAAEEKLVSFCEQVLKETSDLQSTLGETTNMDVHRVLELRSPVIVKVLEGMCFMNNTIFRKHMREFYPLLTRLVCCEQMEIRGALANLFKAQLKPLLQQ
BD::MIN7-M (aa571–1207, including the Sec7 catalytic domain): residues 571-1207 of F4IXW2
BD::MIN7-C (aa1208–1739): residues 1208-1739 of F4IXW2

The target in one experiment is MIN7 (Arabidopsis) (UniProt F4IXW2). Nature of the experiment: co-IP; targeted co-IP with MIN7- and MIN10-specific antibodies (Fig. S3); material and conditions not shown.
For experiment [1], the target named is BD::MIN7-M (aa571–1207, including the Sec7 catalytic domain) (Arabidopsis) (UniProt F4IXW2). Nature of the experiment: two-hybrid; LexA-based Y2H system (Clontech); BD fusions from pGILDA, AD fusions from pB42AD; strain EGY48 with lacZ reporter plasmid; minimal medium with galactose and X-gal; blue colour indicates interaction.
Experiment [2] concerns the target BD::MIN7-C (aa1208–1739) (Arabidopsis) (UniProt F4IXW2). Described as above.

These are yes or no findings as the source states them, for the method shown. For part of these data: In cells and extracts the contact can be indirect. Some entries that bind do so weakly or less than the wild type. For part of these data: Tags and fused reporters may be left off the sequences shown.

B1: MIN10 (14-3-3 KAPPA) (protein, UniProt P48348 1-248)
chain: MATTLSRDQYVYMAKLAEQAERYEEMVQFMEQLVSGATPAGELTVEERNLLSVAYKNVIGSLRAAWRIVSSIEQKEESRKNEEHVSLVKDYRSKVETELSSICSGILRLLDSHLIPSATASESKVFYLKMKGDYHRYLAEFKSGDERKTAAEDTMIAYKAAQDVAVADLAPTHPIRLGLALNFSVFYYEILNSSEKACSMAKQAFEEAIAELDTLGEESYKDSTLIMQLLRDNLTLWTSDMQEQMDEA
In the case of B1, in the experiment with MIN7 (Arabidopsis), the binding result is on record as “binds”.

B2: AD::MIN10 (full length 14-3-3 kappa) (protein, UniProt P48348 1-248)
chain: MATTLSRDQYVYMAKLAEQAERYEEMVQFMEQLVSGATPAGELTVEERNLLSVAYKNVIGSLRAAWRIVSSIEQKEESRKNEEHVSLVKDYRSKVETELSSICSGILRLLDSHLIPSATASESKVFYLKMKGDYHRYLAEFKSGDERKTAAEDTMIAYKAAQDVAVADLAPTHPIRLGLALNFSVFYYEILNSSEKACSMAKQAFEEAIAELDTLGEESYKDSTLIMQLLRDNLTLWTSDMQEQMDEA
In the case of B2, the binding entry in experiment [1] is reported as “binds”.

B3: AD::HLB1 (full-length HLB1) (protein, UniProt Q9FHY8 1-565)
chain: MADTVEEPQLQNGAAPAESETEQNPIPEPQLQTEPKLTGEIPEIEADLTPEEVQSEVTDAKPEEVQSEVKPEEVKTVVTDAKPEEAQSEVKPEEVQSVVTDTKPDLTDVDLSPGGSEEIPIRSTEVEQESTTSVLKKDDDGNKTFTMRELLSELKSEEGDGTPHSSASPFSRESASQPAENNPAMDLINRIQVNDEEGRSRQRVLAFAARKYASAIERNPDDHDALYNWALILQESADNVSPDSVSPSKDDLLEEACKKYDEATRLCPTLYDAYYNWAIAISDRAKIRGRTKEAEELWEQAADNYEKAVQLNWNSSQALNNWGLVLQELSQIVPAREKEKVVRTAISKFRAAIRLQFDFHRAIYNLGTVLYGLAEDTLRTGGSGNGKDMPPGELYSQSAIYIAAAHSLKPSYSVYSSALRLVRSMLPLPHLKVGYLTAPPVGNSLAPHSDWKRTEFELNHERLLQVLKPEPREMGRNLSGKAETMSTNVERKTVKVNITEIVSVTPCADLTLPPGAGLCIDTIHGPVFLVADSWESLDGWLDAIRLVYTIYARGKSDVLAGIITG
As for B3, in experiment [2], the binding result is “binds”.
